The supplement of paper PMC10849652
The other results are listed elsewhere or left out.

Chains of the proteins cited; added tags and fusions are not shown. Lines headed by an entry give the natural chain unless they say otherwise; changes in a name come on top.
UniProt P62070: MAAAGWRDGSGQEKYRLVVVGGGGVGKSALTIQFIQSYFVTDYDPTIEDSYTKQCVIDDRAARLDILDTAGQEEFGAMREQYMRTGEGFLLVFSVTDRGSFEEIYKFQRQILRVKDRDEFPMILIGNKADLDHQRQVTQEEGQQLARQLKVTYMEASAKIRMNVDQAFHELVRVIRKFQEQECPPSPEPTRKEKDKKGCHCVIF
UniProt O95059: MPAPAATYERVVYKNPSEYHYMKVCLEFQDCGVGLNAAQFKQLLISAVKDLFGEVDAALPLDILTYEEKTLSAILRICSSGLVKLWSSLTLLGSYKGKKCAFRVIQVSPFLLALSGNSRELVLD
UniProt Q9HB90, whole entry, looked up: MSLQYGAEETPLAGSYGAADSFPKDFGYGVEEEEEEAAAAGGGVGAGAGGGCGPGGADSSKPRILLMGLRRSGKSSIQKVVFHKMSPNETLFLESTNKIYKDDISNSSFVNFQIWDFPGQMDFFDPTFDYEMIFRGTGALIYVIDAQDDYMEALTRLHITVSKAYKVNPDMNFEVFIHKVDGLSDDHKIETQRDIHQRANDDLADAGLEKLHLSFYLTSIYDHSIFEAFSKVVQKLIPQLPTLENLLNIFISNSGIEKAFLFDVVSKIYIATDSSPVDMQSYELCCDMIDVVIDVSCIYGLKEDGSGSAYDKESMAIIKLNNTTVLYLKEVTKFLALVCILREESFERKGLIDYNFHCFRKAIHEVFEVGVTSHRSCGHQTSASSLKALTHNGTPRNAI
UniProt Q01974, whole entry, looked up: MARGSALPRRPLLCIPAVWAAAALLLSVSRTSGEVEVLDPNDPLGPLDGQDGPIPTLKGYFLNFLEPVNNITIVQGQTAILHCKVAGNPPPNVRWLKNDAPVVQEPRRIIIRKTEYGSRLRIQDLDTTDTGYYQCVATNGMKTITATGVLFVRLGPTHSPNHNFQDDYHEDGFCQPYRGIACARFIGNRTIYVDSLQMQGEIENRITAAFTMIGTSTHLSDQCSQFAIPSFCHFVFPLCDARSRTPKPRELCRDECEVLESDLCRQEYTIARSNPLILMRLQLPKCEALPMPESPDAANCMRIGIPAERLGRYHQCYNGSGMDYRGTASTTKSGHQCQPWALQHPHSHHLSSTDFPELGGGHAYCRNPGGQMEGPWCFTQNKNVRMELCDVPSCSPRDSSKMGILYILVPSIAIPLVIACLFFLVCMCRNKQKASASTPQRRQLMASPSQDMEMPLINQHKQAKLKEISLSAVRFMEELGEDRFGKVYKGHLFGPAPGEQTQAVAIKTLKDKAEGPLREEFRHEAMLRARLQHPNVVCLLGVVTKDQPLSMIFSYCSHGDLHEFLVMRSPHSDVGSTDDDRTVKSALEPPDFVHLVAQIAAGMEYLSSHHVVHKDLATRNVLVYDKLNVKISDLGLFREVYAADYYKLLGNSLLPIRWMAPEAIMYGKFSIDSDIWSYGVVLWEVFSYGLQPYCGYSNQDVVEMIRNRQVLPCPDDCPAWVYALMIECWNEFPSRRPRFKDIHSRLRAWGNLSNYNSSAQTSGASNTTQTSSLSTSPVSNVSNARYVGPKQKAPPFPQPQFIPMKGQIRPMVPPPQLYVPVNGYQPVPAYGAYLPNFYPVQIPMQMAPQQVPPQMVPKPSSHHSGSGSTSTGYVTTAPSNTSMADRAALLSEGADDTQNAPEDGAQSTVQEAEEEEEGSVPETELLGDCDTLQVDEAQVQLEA
UniProt O75818: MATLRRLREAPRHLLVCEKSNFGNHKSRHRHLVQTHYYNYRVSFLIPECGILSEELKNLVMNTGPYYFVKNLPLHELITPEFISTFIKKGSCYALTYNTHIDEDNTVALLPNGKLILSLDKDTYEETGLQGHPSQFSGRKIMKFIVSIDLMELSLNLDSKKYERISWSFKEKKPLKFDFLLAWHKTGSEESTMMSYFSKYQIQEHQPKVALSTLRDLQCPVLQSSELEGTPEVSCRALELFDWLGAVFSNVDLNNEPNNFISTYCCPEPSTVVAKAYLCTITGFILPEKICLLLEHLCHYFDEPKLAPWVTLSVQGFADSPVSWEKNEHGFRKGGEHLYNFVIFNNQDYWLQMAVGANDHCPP
UniProt Q13464: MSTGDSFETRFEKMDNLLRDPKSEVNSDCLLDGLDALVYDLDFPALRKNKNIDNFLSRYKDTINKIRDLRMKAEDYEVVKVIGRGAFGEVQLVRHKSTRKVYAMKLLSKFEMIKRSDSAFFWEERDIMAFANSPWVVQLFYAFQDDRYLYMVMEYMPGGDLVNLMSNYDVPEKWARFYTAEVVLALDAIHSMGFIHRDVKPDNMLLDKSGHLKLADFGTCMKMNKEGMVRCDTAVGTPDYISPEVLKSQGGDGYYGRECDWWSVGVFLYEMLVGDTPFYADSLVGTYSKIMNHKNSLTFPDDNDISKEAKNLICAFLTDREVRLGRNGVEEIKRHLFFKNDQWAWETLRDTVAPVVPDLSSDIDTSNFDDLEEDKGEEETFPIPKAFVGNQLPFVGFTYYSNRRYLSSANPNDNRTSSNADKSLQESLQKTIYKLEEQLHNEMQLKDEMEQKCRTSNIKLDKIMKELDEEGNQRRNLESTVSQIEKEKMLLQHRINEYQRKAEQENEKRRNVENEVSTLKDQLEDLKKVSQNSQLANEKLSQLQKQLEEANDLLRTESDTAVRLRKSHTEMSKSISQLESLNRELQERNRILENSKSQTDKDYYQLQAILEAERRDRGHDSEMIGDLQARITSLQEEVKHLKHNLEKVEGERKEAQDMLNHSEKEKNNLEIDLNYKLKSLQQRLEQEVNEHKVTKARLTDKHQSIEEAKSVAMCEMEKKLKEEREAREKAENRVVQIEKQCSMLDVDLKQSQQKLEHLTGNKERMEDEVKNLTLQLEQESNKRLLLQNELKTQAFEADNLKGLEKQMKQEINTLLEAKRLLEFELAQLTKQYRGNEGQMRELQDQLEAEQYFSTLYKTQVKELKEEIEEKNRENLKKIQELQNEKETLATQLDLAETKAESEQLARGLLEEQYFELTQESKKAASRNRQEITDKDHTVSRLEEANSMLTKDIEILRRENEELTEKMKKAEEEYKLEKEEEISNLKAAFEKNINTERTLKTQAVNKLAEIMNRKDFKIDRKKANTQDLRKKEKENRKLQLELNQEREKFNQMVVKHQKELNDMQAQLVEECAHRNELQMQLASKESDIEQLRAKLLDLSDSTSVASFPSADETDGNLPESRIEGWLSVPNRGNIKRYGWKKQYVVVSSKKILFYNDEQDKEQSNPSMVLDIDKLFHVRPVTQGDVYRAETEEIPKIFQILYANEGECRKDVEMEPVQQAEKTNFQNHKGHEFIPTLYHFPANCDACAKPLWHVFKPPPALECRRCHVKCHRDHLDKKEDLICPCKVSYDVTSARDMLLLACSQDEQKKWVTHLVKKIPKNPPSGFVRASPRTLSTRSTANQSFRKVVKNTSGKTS
UniProt Q8N5L8: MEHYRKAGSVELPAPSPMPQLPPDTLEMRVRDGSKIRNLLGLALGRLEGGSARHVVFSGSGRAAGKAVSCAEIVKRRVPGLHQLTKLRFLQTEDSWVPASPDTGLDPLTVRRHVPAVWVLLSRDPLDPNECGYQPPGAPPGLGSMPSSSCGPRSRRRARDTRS
UniProt Q8IXW5, whole entry, looked up: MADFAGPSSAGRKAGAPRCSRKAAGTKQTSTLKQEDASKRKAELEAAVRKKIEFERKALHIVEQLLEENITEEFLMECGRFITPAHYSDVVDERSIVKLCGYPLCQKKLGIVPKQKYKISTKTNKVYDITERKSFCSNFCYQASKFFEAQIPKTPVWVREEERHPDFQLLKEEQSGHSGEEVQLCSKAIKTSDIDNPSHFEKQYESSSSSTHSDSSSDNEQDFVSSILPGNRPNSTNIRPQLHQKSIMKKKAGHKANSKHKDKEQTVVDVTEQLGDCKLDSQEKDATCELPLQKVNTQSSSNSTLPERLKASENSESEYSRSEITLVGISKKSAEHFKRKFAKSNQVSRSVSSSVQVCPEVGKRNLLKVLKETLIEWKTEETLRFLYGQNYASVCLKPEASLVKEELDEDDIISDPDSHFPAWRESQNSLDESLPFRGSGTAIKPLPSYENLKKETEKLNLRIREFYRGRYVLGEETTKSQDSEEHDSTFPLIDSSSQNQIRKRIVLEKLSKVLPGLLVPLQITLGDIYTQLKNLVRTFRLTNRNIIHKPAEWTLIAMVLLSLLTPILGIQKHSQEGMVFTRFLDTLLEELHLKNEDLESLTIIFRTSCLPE
UniProt P56182: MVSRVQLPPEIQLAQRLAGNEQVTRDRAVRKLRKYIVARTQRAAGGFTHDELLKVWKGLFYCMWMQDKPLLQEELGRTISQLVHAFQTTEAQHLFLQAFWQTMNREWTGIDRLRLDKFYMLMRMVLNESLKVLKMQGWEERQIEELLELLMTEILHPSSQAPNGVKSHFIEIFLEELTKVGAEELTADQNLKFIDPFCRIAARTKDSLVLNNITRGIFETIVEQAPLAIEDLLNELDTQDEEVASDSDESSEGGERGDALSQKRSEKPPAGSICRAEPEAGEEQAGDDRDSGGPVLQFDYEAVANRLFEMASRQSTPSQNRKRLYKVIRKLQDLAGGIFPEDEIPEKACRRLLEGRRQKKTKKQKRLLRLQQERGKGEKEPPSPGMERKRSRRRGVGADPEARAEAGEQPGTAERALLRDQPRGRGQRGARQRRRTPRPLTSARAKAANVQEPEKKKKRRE

Experiments:
Experiment in all cases: log2 fold change, soluble protein after heating vs DMSO (PISA); higher = thermal stabilisation; K562 cells, 10 uM, 30 min; active = over 0.2 and 3.5 SD of the protein, either way, in both replicates (recomputed)
erlotinib = compound: C#Cc1cccc(Nc2ncnc3cc(OCCOC)c(OCCOC)cc23)c1 [erlotinib]
How it was run: (§1)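 For each measurement, 10 μM compound was applied for 30 min to K562 cells at 2×10^6 cells/mL. Aliquots were heated for 3 min across 48°C-58°C, pooled, and extracted in PBS with 0.5% NP-40 at 4°C; the supernatant after 21,000xg for 90 min was soluble protein. This was quantified by TMTpro 16plex LC-MS/MS with channel sums equalised, and thermal stability was reported relative to control samples from duplicates, on a log2 fold-change scale.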

[1] = compound: C/C(=N\NC(=O)C1=CC(=CC=C1)S(=O)(=O)N2CCOCC2)/C3=C(C=CC(=C3)Cl)O
How it was run: as §1

[2] = compound: C1=CC(=C(C=C1Cl)C2=NC3=NC=CN=C3C(=N2)NC4=CC=NC=C4)F
How it was run: as §1

[3] = compound: C1=CC(=CC=C1C2=NC3=C(N2)C=C(C=C3)C(=O)N)OC4=CC=C(C=C4)Cl
How it was run: as §1

[4] = compound: C1=CC2=C(C=CC(=C2)/C=C\3/C(=O)NC(=NCC4=CC=CS4)S3)N=C1
How it was run: as §1

[5] = compound: C1=CC2=NC=CN=C2C=C1/C=C/3\C(=O)NC(=O)S3
How it was run: as §1

[6] = compound: C1=CC=C(C=C1)C2=NC(=C(N2)C3=CC=NC=C3)C4=CC(=C(C=C4)Cl)O
How it was run: as §1

[7] = compound: C1=CC=C2C(=C1)C3=NNC4=CC=CC(=C43)C2=O
How it was run: as §1

[8] = compound: C1CCN(C1)C(=O)NC2=CC=CC(=C2)NC3=NC=C(C(=N3)NCCC4=CN=CN4)Br
How it was run: as §1

[9] = compound: C1CN(CCC1(CC2=CC=C(C=C2)Cl)N)C3=NC=NC4=C3C=CN4
How it was run: as §1

Target	log2 fold change (erlotinib)	log2 fold change [1]	log2 fold change [2]	log2 fold change [3]	log2 fold change [4]	log2 fold change [5]	log2 fold change [6]	log2 fold change [7]	log2 fold change [8]	log2 fold change [9]
RRAS2 isoform 4 (UniProt P62070)	inactive: 0.002	inactive: -0.076	inactive: -0.046	inactive: 0.015	inactive: -0.006	inactive: 0.038	inactive: -0.015	inactive: -0.059	inactive: -0.085	inactive: 0.093
RPL4 (UniProt P36578)	inactive: -0.474	inactive: -0.345	inactive: -1.09	inactive: 0.084	inactive: -0.215	inactive: -0.064	inactive: -0.029	inactive: 0.041	inactive: -0.008	inactive: -0.483
RPS28 (UniProt P62857)	inactive: -0.017	inactive: -0.29	inactive: -0.071	inactive: -0.004	inactive: -0.317	inactive: 0.004	inactive: -0.072	inactive: 0.135	inactive: 0.167	inactive: 0.06
RPS6 (UniProt P62753)	inactive: -0.259	inactive: -0.123	inactive: -0.564	inactive: 0.042	inactive: -0.301	inactive: -0.049	inactive: 0.031	inactive: 0.052	inactive: -0.061	inactive: -0.158
RPP14 (UniProt O95059)	inactive: -0.047	inactive: 0.09	inactive: -0.077	inactive: 0.059	inactive: -0.046	inactive: -0.023	inactive: 0.012	inactive: -0.022	inactive: -0.017	inactive: 0.021
RRAGC (UniProt Q9HB90)	inactive: 0.014	inactive: 0.03	inactive: 0.047	inactive: -0.007	inactive: 0.019	inactive: 0.013	inactive: -0.051	inactive: -0.02	inactive: 0.014	inactive: 0.052
ROR2 (UniProt Q01974)	inactive: -0.045	inactive: 0.058	inactive: 0.01	inactive: 0.023	inactive: 0.02	inactive: 0.011	inactive: 0.076	inactive: -0.024	inactive: -0.041	inactive: -0.001
RPP40 (UniProt O75818)	inactive: -0.104	inactive: -0.004	inactive: -0.039	inactive: 0.007	inactive: 0.004	inactive: 0	inactive: 0.004	inactive: 0.021	inactive: -0.009	inactive: -0.001
RPL21 (UniProt P46778)	inactive: -0.413	inactive: -0.38	inactive: -1.19	inactive: 0.073	inactive: -0.196	inactive: -0.066	inactive: -0.105	inactive: -0.012	inactive: 0.101	inactive: -0.331
RPL10A (UniProt P62906)	inactive: -0.41	inactive: -0.403	inactive: -1.07	inactive: 0.085	inactive: -0.235	inactive: -0.054	inactive: -0.091	inactive: 0.039	inactive: 0.02	inactive: -0.484
RPL13A (UniProt P40429)	inactive: -0.412	inactive: -0.348	inactive: -1.01	inactive: 0.079	inactive: -0.242	inactive: -0.077	inactive: -0.083	inactive: 0.05	inactive: 0.04	inactive: -0.475
RPS23 (UniProt P62266)	inactive: -0.343	inactive: -0.203	inactive: -0.573	inactive: 0.061	inactive: -0.083	inactive: -0.047	inactive: -0.062	inactive: 0.002	inactive: 0.093	inactive: -0.25
RPS15 (UniProt P62841)	inactive: -0.173	inactive: -0.259	inactive: -0.208	inactive: 0.016	inactive: 0.028	inactive: -0.092	inactive: 0.036	inactive: -0.131	inactive: 0.188	inactive: -0.138
ROCK1 (UniProt Q13464)	inactive: 0.049	inactive: -0.025	inactive: 0.042	inactive: -0.007	inactive: 0.199	inactive: 0.027	inactive: -0.007	inactive: -0.018	inactive: 0.032	inactive: 0.205
RPS21 (UniProt P63220)	inactive: -0.045	inactive: -0.062	inactive: -0.071	inactive: 0.017	inactive: -0.056	inactive: 0.079	inactive: -0.066	inactive: -0.027	inactive: 0.033	inactive: 0.017
RPL6 (UniProt Q02878)	inactive: -0.468	inactive: -0.289	inactive: -0.848	inactive: 0.093	inactive: -0.126	inactive: -0.035	inactive: -0.141	inactive: 0.079	inactive: 0.033	inactive: -0.371
RPL36A (UniProt P83881)	inactive: -0.15	inactive: -0.46	inactive: -0.515	inactive: 0.06	inactive: -0.133	inactive: -0.011	inactive: -0.104	inactive: -0.117	inactive: 0.086	inactive: -0.323
RPS11 (UniProt P62280)	inactive: -0.204	inactive: -0.249	inactive: -0.586	inactive: 0.059	inactive: -0.18	inactive: -0.025	inactive: -0.034	inactive: -0.036	inactive: 0.073	inactive: -0.217
RPL23 (UniProt P62829)	inactive: -0.156	inactive: -0.16	inactive: -0.408	inactive: 0.043	inactive: -0.096	inactive: -0.033	inactive: -0.036	inactive: 0.039	inactive: 0.088	inactive: -0.179
RPP25L (UniProt Q8N5L8)	active: 0.274	inactive: -0.004	inactive: -0.029	inactive: 0.031	inactive: -0.001	inactive: 0.041	inactive: 0.014	inactive: -0.065	inactive: 0.01	inactive: 0.01
RPS2 (UniProt P15880)	inactive: -0.199	inactive: -0.138	inactive: -0.323	inactive: 0.047	inactive: -0.1	inactive: -0.039	inactive: -0.064	inactive: -0.041	inactive: 0.086	inactive: -0.162
RPL9 (UniProt P32969)	inactive: -0.416	inactive: -0.313	inactive: -0.78	inactive: 0.059	inactive: -0.162	inactive: -0.033	inactive: -0.06	inactive: 0.041	inactive: 0.054	inactive: -0.381
RPAP2 (UniProt Q8IXW5)	inactive: 0.06	inactive: 0.44	inactive: -0.077	inactive: -0.027	inactive: -0.181	–	inactive: -0.178	inactive: 0.063	inactive: 0.045	inactive: 0.022
RRP1 (UniProt P56182)	inactive: 0.011	–	–	inactive: 0.24	–	–	inactive: -0.198	–	–	–

Complete entries as entered above. Order of values: log2 fold change (erlotinib) | log2 fold change [1] | log2 fold change [2] | log2 fold change [3] | log2 fold change [4] | log2 fold change [5] | log2 fold change [6] | log2 fold change [7] | log2 fold change [8] | log2 fold change [9]
RRAS2 isoform 4 (UniProt P62070) in the list: inactive: 0.002 | inactive: -0.076 | inactive: -0.046 | inactive: 0.015 | inactive: -0.006 | inactive: 0.038 | inactive: -0.015 | inactive: -0.059 | inactive: -0.085 | inactive: 0.093
RPP14 (UniProt O95059) in the list: inactive: -0.047 | inactive: 0.09 | inactive: -0.077 | inactive: 0.059 | inactive: -0.046 | inactive: -0.023 | inactive: 0.012 | inactive: -0.022 | inactive: -0.017 | inactive: 0.021
